The source of these data is PubChem BioAssay AID1498 (National Center for Advancing Translational Sciences (NCATS), 2009).

Some of the results follow. Further columns of the screen follow, without active or inactive calls. Most of these compounds were active or inconclusive in the main read-out, so they are no random draw. The note in brackets gives the kind of curve behind each potency; many fits are weak.

For orientation: AC50 means the concentration giving half of the maximal activity seen.

The nature of the experiment: Confirmation Concentration-Response Assay for Modulators of Lamin A Splicing. To be noted: HeLa lamin A splicing GFP/RFP minigene, Acumen, 48 h; for ratio activity: GFP/RFP ratio at top concentration; for ratio activity / RFP activity: at 46.1 µM; for RFP activity: RFP channel at top concentration. Summed up:
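S3 HeLa cells stably expressing lamin A-EGFP splicing minigene and DsRed2, 600 cells/well in Opti-MEM with 2% FBS, compounds 48 h at 37C; laser-scanning cytometry (488 nm), GFP/RFP total intensity ratio analysed; 0.5% DMSO.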

The mark [1] stands for this setting: measured here: GFP/RFP ratio splicing readout.
The mark [2] stands for this setting: measured here: RFP viability/nonspecific counter channel.

With `Cc1noc(C)c1-c1ccc2ncnc(NCC3CCN(C)CC3)c2c1`, the ratio activity was -38.4% and the RFP activity was -13.4%. For the same molecule, the AC50 under setting [1] is 7.94 µM [falling, full curve, poor fit].

For the molecule `Cc1noc(C)c1-c1ccc2ncnc(NC(C)c3ccccc3)c2c1` (configuration not stated), the ratio activity was -36.3% and the RFP activity is -4.28%. The AC50 under setting [1] was 11.2 µM [falling, full curve, poor fit].

On to `CNc1ncnc2ccc(-c3c(C)noc3C)cc12`, for which the ratio activity is -7.24% and the RFP activity was -31.9%. In addition, the AC50 under setting [2] was 0.282 µM [falling, full curve, poor fit].

Turning to `N=C1S/C(=C\c2cccc3ccccc23)C(=O)N1c1ccc(F)cc1`, the ratio activity was -22.2% and the RFP activity was -84.3%. The AC50 under setting [2] was 10 µM [falling, full curve, poor fit].

Regarding `Cc1ccccc1C(=O)c1c[nH]c(C(=O)NCc2ccco2)c1`, the ratio activity is -25.7% and the RFP activity is -26.5%. Besides, the AC50 under setting [1] is 3.16 µM [falling, full curve, poor fit].

As to `CC1=CC(=O)c2ccccc2C1=O`, the ratio activity turned out to be 202% and the RFP activity was -98.9%. In addition, the AC50 under setting [2] was 35.5 µM [falling, partial curve, poor fit].

Regarding `Cc1noc(C)c1-c1ccc2ncnc(NCC3CCCCN3C)c2c1` (configuration not stated), the ratio activity is -35.2% and the RFP activity worked out at 7.98%. Moreover, under setting [1], the AC50 was 7.94 µM [falling, full curve, poor fit].

Take `COc1ccc(CNC(=O)CSc2ccc(Br)cc2)cc1OC`: the ratio activity is -16.4% and the RFP activity is -13.3%.

As to `COc1ccccc1OCC(=O)NN=C(Cc1ccccc1)Cc1ccccc1`, the ratio activity was -16.2% and the RFP activity is -27.1%. The AC50 under setting [2] is 7.94 µM [falling, partial curve, poor fit].

Turning to `CC(=O)Nc1ccccc1OCC(=O)c1cc(C)n(Cc2cccs2)c1C`, the ratio activity was -24.2% and the RFP activity was -21.6%.

On to `CC(O)/C=C/c1ccc2ccccc2n1` (configuration not stated), for which the ratio activity was -46.5% and the RFP activity is -43.7%. Further, under setting [1], the AC50 was 14.1 µM [falling, partial curve, poor fit].

Take `Cc1cccc(NC(=S)NCCC(C)C)c1`: the ratio activity is -11.2% and the RFP activity was -17.3%.

For `COc1cccc(CNc2ncnc3ccc(-c4c(C)noc4C)cc23)c1`, the ratio activity was -22.1% and the RFP activity was -30.8%. Further, the concentration at half-maximal activity (AC50) under setting [2] was 11.2 µM [falling, full curve, poor fit].

Turning to `Cc1onc(-c2ccccc2)c1C(=O)NC(=S)NNC(=O)c1ccccc1O`, the ratio activity is -22.4% and the RFP activity was found to be 67%. Under setting [2], the AC50 was 3.98 µM [rising, full curve, poor fit].

Regarding `O=c1cc(N2CCOCC2)oc2c(-c3ccccc3)cccc12`, the ratio activity is -42.8% and the RFP activity is -16.8%. The AC50 under setting [1] is 7.08 µM [falling, partial curve, poor fit].

On to `Cc1noc(C)c1-c1ccc2ncnc(NCc3cccn3C)c2c1`, for which the ratio activity was -34.7% and the RFP activity is -11.8%. The AC50 under setting [1] was 14.1 µM [falling, partial curve, poor fit].

On to `CCOC(=O)Nc1ccc2c(c1)N(C(=O)CCN1CCOCC1)c1ccccc1S2`, for which the ratio activity was -23.3% and the RFP activity is -1.28%.

Take `Cc1noc(C)c1-c1ccc2ncnc(NCc3ccccc3C(F)(F)F)c2c1`: the ratio activity is -37.9% and the RFP activity turned out to be 16.4%. For the same molecule, under setting [1], the AC50 is 11.2 µM [falling, full curve, poor fit].

For `C/C(N)=C(/C#N)C(=O)COC(=O)c1cc(-c2ccc(Br)cc2)nc2ccccc12`, the ratio activity is -6.41% and the RFP activity was -26.5%.

Turning to `Oc1ccccc1N=Nc1nc(-c2ccccc2)c(-c2ccccc2)[nH]1`, the ratio activity stood at 4.93% and the RFP activity was -73.8%. Besides, the AC50 under setting [2] was 25.1 µM [falling, partial curve, poor fit].

Take `COc1cc2c(cc1OC)C(C)N(C(=O)c1cc3ccccc3o1)CC2` (configuration not stated): the ratio activity was -27.5% and the RFP activity is -13.8%.

For the molecule `COc1cc(N)c(Cl)cc1C(=O)NC1CCN(Cc2ccccc2)CC1`, the ratio activity is -15.1% and the RFP activity is -5.69%.

Turning to `CCC(=Nc1ccc(Cc2ccncc2)cc1)c1c(O)n(C)c(=O)n(C)c1=O`, the ratio activity is -5.71% and the RFP activity was -31.4%.

`CC[C@H]1CN2CCc3cc(OC)c(OC)cc3[C@@H]2C[C@@H]1C[C@H]1NCCc2cc(OC)c(OC)cc21`: the ratio activity was -3.47% and the RFP activity was -97%. Besides, under setting [1], the AC50 was 0.158 µM [falling, full curve, poor fit].

As to `N=c1c2c(ncn1Cc1ccco1)Oc1ccc3ccccc3c1C2c1ccccc1` (configuration not stated), the ratio activity was 3.86% and the RFP activity is -95.1%. Under setting [2], the AC50 was 35.5 µM [falling, partial curve, poor fit].

Take `Cc1noc(C)c1-c1ccc2ncnc(NC(C)c3ccco3)c2c1` (configuration not stated): the ratio activity was -6.52% and the RFP activity is 24.4%. Further, under setting [1], the half-maximal activity concentration (AC50) is 2.24 µM [falling, full curve, poor fit].

On to `Cc1noc(C)c1-c1ccc2ncnc(NCc3ccc(Cl)cc3)c2c1`, for which the ratio activity is -34.3% and the RFP activity is -9.95%. Further, under setting [1], the AC50 is 28.2 µM [falling, partial curve, poor fit].

Consider `Cc1cc(C)cc(SCc2noc(C(=O)NC(C)C)c2C(=O)O)c1`, for which the ratio activity is -36.7% and the RFP activity was -8.12%. In addition, the AC50 under setting [1] is 31.6 µM [falling, single point].

Consider `Cc1cc(C(=O)N/N=C/c2cc([N+](=O)[O-])cc(C)c2O)n[nH]1`, for which the ratio activity was -34.4% and the RFP activity was -5.58%. For the same molecule, the AC50 under setting [1] is 17.8 µM [falling, partial curve, poor fit].

Consider `CCOc1ccc(-c2cc(CCCC(=O)NCc3cccnc3)no2)cc1`, for which the ratio activity was -27.2% and the RFP activity amounted to 44.2%. In addition, the AC50 under setting [2] was 0.00126 µM [falling, full curve, poor fit].

Take `O=c1cc(CSc2nnc(-c3cccs3)n2Cc2ccccc2)nc2sc3ccccc3n12`: the ratio activity was -3.73% and the RFP activity is -28.4%.

Turning to `Cc1cc(C)c(Cn2cnc(-c3ccc([N+](=O)[O-])cc3)c2)c(C)c1`, the ratio activity was -34.6% and the RFP activity is -23.6%. Also, the AC50 under setting [1] is 2.82 µM [falling, full curve].

As to `Cc1noc(C)c1-c1ccc2ncnc(NCc3ccc(Br)cc3)c2c1`, the ratio activity was -31.7% and the RFP activity was 13.4%. In addition, the AC50 under setting [1] was 14.1 µM [falling, full curve, poor fit].

On to `Cc1noc(C)c1-c1ccc2ncnc(NC3CCCc4ccccc43)c2c1` (configuration not stated), for which the ratio activity is -39.7% and the RFP activity worked out at 3.86%. In addition, under setting [1], the AC50 is 7.94 µM [falling, full curve, poor fit].

`CCOc1ccccc1C(=O)N1CCN(C(c2ccccc2)c2ccccc2)CC1`: the ratio activity was -15.9% and the RFP activity turned out to be 1.04%.

For the molecule `CCOc1c(Cl)cc(C(=O)Nc2ccccc2C(=O)O)cc1Cl`, the ratio activity is -45.4% and the RFP activity was 13.4%. For the same molecule, the AC50 under setting [1] was 7.08 µM [falling, full curve].

For the molecule `O=C(c1ccc2ccccc2c1)N1CCN(c2ccc(O)cc2)CC1`, the ratio activity is -43.1% and the RFP activity is -19.1%. The AC50 under setting [1] was 3.98 µM [falling, full curve, poor fit].

On to `Nc1ccc(N2CCN(C(=O)c3ccco3)CC2)cc1`, for which the ratio activity was -43.7% and the RFP activity was -11.9%. The AC50 under setting [1] is 8.91 µM [falling, full curve, poor fit].

Regarding `Cc1noc(C)c1-c1ccc2ncnc(NCc3ccccc3Cl)c2c1`, the ratio activity was -39.5% and the RFP activity is -8.82%. Further, the AC50 under setting [1] was 14.1 µM [falling, full curve, poor fit].

Turning to `COc1cc(/C=N/Nc2ncnc3sc4c(c23)CCC4)ccc1O`, the ratio activity was -17.6% and the RFP activity turned out to be 31%. Moreover, the AC50 under setting [2] is 1.26 µM [rising, full curve, poor fit].

`CCOC(=O)CSc1ncnc2c1nnn2-c1ccc(F)cc1`: the ratio activity was -8.53% and the RFP activity was -20.2%. Further, under setting [2], the AC50 was 8.91 µM [falling, single point].

As for `COC1=C(N)C(=O)c2nc(-c3nc(C(=O)O)c(C)c(-c4ccc(OC)c(OC)c4O)c3N)ccc2C1=O`, the ratio activity is -38.9% and the RFP activity was -21.4%. The AC50 under setting [1] was 0.000631 µM [falling, full curve, poor fit].

Turning to `COc1cc(N[C@@H](C)CCCN)c2ncccc2c1`, the ratio activity is -30.9% and the RFP activity was -18%. Besides, under setting [1], the AC50 is 28.2 µM [falling, partial curve, poor fit].

`COc1c(C)c2c(c(O)c1C/C=C(\C)CCC(=O)O)C(=O)OC2`: the ratio activity was -58.8% and the RFP activity turned out to be 29.9%. For the same molecule, the concentration at half-maximal activity (AC50) under setting [1] was 0.447 µM [falling, full curve]. Also, the AC50 under setting [2] was 0.631 µM [rising, full curve, poor fit].

With `Cc1noc(C)c1CSc1nc2[nH]ncc2c(=O)n1-c1ccccc1`, the ratio activity is -33.5% and the RFP activity was -6.37%. Besides, the AC50 under setting [1] is 0.794 µM [falling, full curve, poor fit].

As for `C=CCNC(=O)c1onc(CSc2cccc(C)c2)c1C(=O)O`, the ratio activity is -8.51% and the RFP activity is -10.1%. For the same molecule, the AC50 under setting [2] was 6.31 µM [rising, single point].

With `Nc1ccc(Cc2nc3cc4ccccc4cc3[nH]2)cc1`, the ratio activity was -51.8% and the RFP activity is 18.6%. For the same molecule, under setting [1], the AC50 was 5.01 µM [falling, full curve, poor fit].

For `Cc1noc(C)c1-c1ccc2ncnc(NCc3ccc(C(F)(F)F)o3)c2c1`, the ratio activity is -38.2% and the RFP activity worked out at 17.6%. Moreover, the AC50 under setting [1] is 10 µM [falling, full curve].

On to `COc1ccc(CNc2ncnc3ccc(-c4c(C)noc4C)cc23)cc1`, for which the ratio activity is -49.7% and the RFP activity was 29.2%. Further, the AC50 under setting [1] is 2.51 µM [falling, full curve]. Moreover, the AC50 under setting [2] was 14.1 µM [rising, full curve, poor fit].

In the case of `Cc1c(Cl)ccc2sc(NC(=O)CN3C(=O)c4ccccc4C3=O)nc12`, the ratio activity is -11.1% and the RFP activity is -6.77%. Moreover, the AC50 under setting [2] is 0.631 µM [falling, full curve, poor fit].

On to `CC12CCC(C/C1=N\N=C1\NC(=O)/C(=C\c3cccc(Br)c3)S1)C2(C)C` (configuration not stated), for which the ratio activity was -16.4% and the RFP activity was -75.5%. Further, the AC50 under setting [2] was 14.1 µM [falling, partial curve, poor fit].

Consider `Cc1ccc(C(=O)CN2/C(=C(\O)c3ccccc3)C(=O)c3ccccc3S2(=O)=O)c(C)c1`, for which the ratio activity is -19.5% and the RFP activity stood at 32.2%. The AC50 under setting [2] was 22.4 µM [rising, partial curve, poor fit].

Regarding `Cc1ccc(CNc2ncnc3ccc(-c4c(C)noc4C)cc23)o1`, the ratio activity was -33.9% and the RFP activity is 38.3%. In addition, the AC50 under setting [1] is 2.82 µM [falling, full curve]. Moreover, the AC50 under setting [2] was 10 µM [rising, full curve, poor fit].

`Nc1ccc(C(=O)n2c3ccccc3c3ccccc32)cc1`: the ratio activity was -23.6% and the RFP activity was -33%. Further, the AC50 under setting [1] was 0.631 µM [falling, full curve, poor fit]. In addition, the AC50 under setting [2] is 7.94 µM [falling, full curve, poor fit].

On to `Cc1ccc(CNc2ncnc3ccc(-c4c(C)noc4C)cc23)cc1`, for which the ratio activity was -27.5% and the RFP activity is -1.75%. The AC50 under setting [1] is 7.08 µM [falling, full curve, poor fit].

For `CCCCOc1ccc(OC(=O)c2cccnc2)cc1`, the ratio activity is -42.9% and the RFP activity is -2.8%. Further, the AC50 under setting [1] is 4.47 µM [falling, full curve, poor fit].
